The chains behind the UniProt entries cited, without tags or fusion partners. Where a name states a change or a piece, a line headed by the entry shows the natural chain unless it says otherwise.
UniProt P18054: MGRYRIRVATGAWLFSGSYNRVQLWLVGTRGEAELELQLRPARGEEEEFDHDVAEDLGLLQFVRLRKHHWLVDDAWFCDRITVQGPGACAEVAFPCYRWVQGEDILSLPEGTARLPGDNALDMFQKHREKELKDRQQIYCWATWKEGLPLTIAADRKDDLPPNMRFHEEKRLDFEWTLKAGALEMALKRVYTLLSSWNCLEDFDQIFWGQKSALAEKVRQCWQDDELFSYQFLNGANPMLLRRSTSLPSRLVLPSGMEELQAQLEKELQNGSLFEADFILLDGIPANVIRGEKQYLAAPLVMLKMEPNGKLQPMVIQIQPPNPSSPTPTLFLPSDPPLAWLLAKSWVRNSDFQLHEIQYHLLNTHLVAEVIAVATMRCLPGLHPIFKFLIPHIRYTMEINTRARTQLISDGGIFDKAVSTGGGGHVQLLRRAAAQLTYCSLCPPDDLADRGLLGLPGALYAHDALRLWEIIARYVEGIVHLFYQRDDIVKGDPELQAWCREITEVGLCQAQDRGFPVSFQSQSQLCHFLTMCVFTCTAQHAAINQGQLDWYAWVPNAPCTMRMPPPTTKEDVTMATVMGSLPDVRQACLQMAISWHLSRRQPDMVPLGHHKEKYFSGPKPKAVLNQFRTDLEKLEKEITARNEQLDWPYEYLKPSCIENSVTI

Values joined by “and” are separate entries in the source; they are usually repeats but may differ in a detail not shown here. Identical values can stand only once. The whole screen tested about 580,000 compounds, of which about 6,100 (1.1%) were called active. This list was built around the results that the source calls inconclusive (neither active nor inactive); the mix of calls is not that of the screen. Calls follow the shape of the dose curve; as a rule, active = well fitted inhibition curve with a large enough effect; inconclusive = small, poorly fitted or top-dose-only effect, or another doubt; inactive = no such curve, though single readings can be large or run the other way. Potencies of inconclusive entries are doubtful fits and often do not repeat.
The compounds below were run against Polyunsaturated fatty acid lipoxygenase ALOX12 (Homo sapiens) (UniProt P18054) (assay: Primary qHTS assay for inhibitors of human arachidonate 12S-lipoxygenase (ALOX12): Round 2). Conditions: purified 12hLO, xylenol orange hydroperoxide absorbance; activity change, negative = inhibition: at 108 µM (top of the series) unless noted.
In short: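 Purified human 12hLO at 150 nM in 25 mM Hepes, 0.01% Triton X-100, pH 7.0, preincubated 15 min at room temperature with compound. Reaction started with 40 uM arachidonic acid, 30 min at room temperature. Hydroperoxide measured by Fe-xylenol orange, 573/405 nm absorbance ratio.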
With `COc1ccc(S(=O)(=O)Nc2ccc(C)cc2)cc1N(C)S(=O)(=O)c1ccc(Cl)cc1` the “activity change, negative = inhibition” value was inactive: 25.2%. `COC(=O)C(=O)C1CCc2c(Cl)cc(OC)c(OC)c2C1=O` (stereo not drawn) was tested, and the Potency was inconclusive: 5.01 µM [inhibitor, full curve]. In the case of `Cc1cccc[n+]1CC(=O)c1ccc([N+](=O)[O-])cc1`, the Potency is reported as inconclusive: 56.2 µM [inhibitor, partial curve, poor fit]. For `C=C(C)CN1CCN(c2nc3c(c(=O)[nH]c(=O)n3C)n2Cc2ccccc2)CC1`, the “activity change, negative = inhibition” value was inactive: 30.4%. In the case of `C=CCn1c(Cc2ccc(OCC)cc2)nnc1SCC(N)=O`, the “activity change, negative = inhibition” value is reported as inactive: -9.01%. With `CCN(Cc1nc2cc(Cl)ccc2c(=O)[nH]1)C(=O)c1cc(Cl)c(OCC(N)=O)c(OC)c1` the Potency was inconclusive: 44.7 µM [inhibitor, partial curve, poor fit]. In the case of `Cc1ccc(NC(=O)Cc2ccc(-n3c(C)nc4cccnc43)cc2)cc1C`, the “activity change, negative = inhibition” value is reported as inactive: 2.99%. With `O=C(NCc1ccc2c(c1)OCO2)Nc1ccc2nsnc2c1` the “activity change, negative = inhibition” value was inactive: -3.48%. For `COc1ccc(/C(C#N)=C/c2c(-c3ccc(Cl)cc3)nc3c(C)cccn23)cc1`, the “activity change, negative = inhibition” value was inactive: 0.335%. In the case of `CS(=O)(=O)Nc1cc(NC(=O)c2cc(-c3ccco3)on2)ccc1F`, the “activity change, negative = inhibition” value is reported as inactive: -25.3%. With `Cc1ccc(Cl)cc1NC(=O)C(C)n1nnc2sc(-c3ccccc3)cc2c1=O` (stereo not drawn) the Potency was inconclusive: 50.1 µM [inhibitor, partial curve, poor fit]. For `O=C(CSc1nnc(Cc2cc(=O)[nH]c(=O)[nH]2)n1-c1ccc(F)cc1)N1CCCCC1`, the “activity change, negative = inhibition” value was inactive: 70.5%. In the case of `CN1CCN(Cc2ccc(Sc3ccc(Cl)cc3)c([N+](=O)[O-])c2)CC1`, the Potency is reported as inconclusive: 100 µM [inhibitor, single point]. `CC(NC(=O)COc1ccc(Br)cc1)c1nc2ccccc2[nH]1` (stereo not drawn) was tested, and the “activity change, negative = inhibition” value was inactive: 14.8%. `C=CCN1CCN(C(=O)C2(CCO)CC23CCOCC3)CC1` (stereo not drawn) was tested, and the “activity change, negative = inhibition” value was inactive: 45.9%. For `CCCCOc1ccc(S(=O)(=O)Nc2ccc(-c3ccc(N4CCCCCC4)nn3)cc2)cc1`, the “activity change, negative = inhibition” value was inactive: -25.5%. For `COc1ccc2cc(CN3CCC(N(C)C)C3)c(-c3cccc(C)c3)nc2c1` (stereo not drawn), the “activity change, negative = inhibition” value was inactive: 31.6%. `COc1cccc(CNC(=O)CCc2cn(Cc3ccccc3Cl)c3ccccc23)c1` was tested, and the “activity change, negative = inhibition” value was inactive: -25.2%. `CCN1CCc2c(sc(NC(=O)Nc3cccc(C)c3)c2C(N)=O)C1` was tested, and the Potency was inconclusive: 22.4 µM [inhibitor, partial curve, poor fit]. In the case of `O=C(NC1CCCCC1)c1ccc([N+](=O)[O-])cc1`, the activity change, negative = inhibition is reported as inconclusive: -32.6% [inhibitor]. In the case of `CC(C)C1C(=O)N(Cc2cn(CCC3OCCO3)nn2)CCS(=O)(=O)N1Cc1ccc(-c2ccc(F)cc2)cc1` (stereo not drawn), the “activity change, negative = inhibition” value is reported as inactive: 3.29%. For `c1ccc(C2=NNC(=NCc3ccc4c(c3)OCO4)SC2)cc1`, the Potency was inconclusive: 100 µM [inhibitor, partial curve, poor fit]. With `O=C(CNC1C(=O)Nc2ccccc21)Sc1ccccc1` (stereo not drawn) the “activity change, negative = inhibition” value was inactive: 0%. In the case of `NC(=O)c1ccc(CNC(=O)c2ccc(C(F)(F)F)cc2)cc1`, the Potency is reported as inconclusive: 126 µM [inhibitor, single point]. In the case of `CN(C)C(=O)N1CCN(c2nc(-c3ccccc3)cs2)CC1`, the Potency is reported as inconclusive: 1.12 µM [inhibitor, full curve, poor fit]. In the case of `O=C(c1ccc(F)cc1)[C@@H]1[C@@H]2CCCN2[C@]2(C(=O)Nc3ccc(F)cc32)[C@@]12C(=O)Nc1ccccc12`, the Potency is reported as inconclusive: 44.7 µM [inhibitor, partial curve, poor fit]. For `CC(=O)c1sc2nsc(SCCN3CCOCC3)c2c1N`, the Potency was inconclusive: 15.8 µM [inhibitor, partial curve]. `O=C(Nc1cccc(S(=O)(=O)N2CCCCC2)c1)c1cc2ccccc2o1` was tested, and the Potency was inconclusive: 10 µM [inhibitor, partial curve, poor fit]. With `Cc1ccc(-c2cc(C(F)(F)F)n3nc(C(=O)N4CCN5CCCC5C4)cc3n2)cc1` (stereo not drawn) the “activity change, negative = inhibition” value was inactive: -8.67%. In the case of `COc1ccc2c(c1)CC/C(=C/c1cc(OC)c(OC)c(OC)c1)C2=O`, the “activity change, negative = inhibition” value is reported as inactive: 19.4%. In the case of `COc1cc(-c2nc(S(=O)(=O)c3ccc(Cl)cc3)c(N(C)C)o2)cc(OC)c1OC`, the Potency is reported as inconclusive: 50.1 µM [inhibitor, partial curve, poor fit]. In the case of `CCC(CNc1ccc2nnnn2n1)N1CCCC1` (stereo not drawn), the Potency is reported as inconclusive: 44.7 µM [inhibitor, partial curve, poor fit]. For `COc1ccc(-c2c3c(=O)n(C)c(=O)n(C)c3cn2-c2cccc(OC)c2)cc1`, the Potency was inconclusive: 50.1 µM [inhibitor, partial curve, poor fit]. With `COc1cc(C(=O)N/N=C/c2ccc(OC(=O)c3cccc(C)c3)c(OC)c2)ccc1O` the Potency was inconclusive: 70.8 µM [inhibitor, partial curve, poor fit]. In the case of `CCC1CN(CC(=O)NC(c2ccccn2)C(F)(F)F)Cc2cc(OC)ccc2O1` (stereo not drawn), the “activity change, negative = inhibition” value is reported as inactive: 4.33%. With `Cc1cc(C)cc(N2C(=O)C=CC2=O)c1` the Potency was inconclusive: 31.6 µM [inhibitor, single point]. In the case of `COc1ccc(N2CC(C(=O)NCC(F)F)NC2=O)cc1` (stereo not drawn), the “activity change, negative = inhibition” value is reported as inactive: 54.6% [at 176 µM]. For `COc1ccc(C(CNC(=O)C(C)c2ccc3cc(OC)ccc3c2)N(C)C)cc1` (stereo not drawn), the Potency was inconclusive: 112 µM [inhibitor, partial curve, poor fit]. `CCCCN(Cc1ccccc1)c1ccc(NS(=O)(=O)c2ccc(F)cc2)cc1C(=O)O` was tested, and the Potency was active: 3.98 µM. For `COc1ccc(C(=O)Nc2nc3ccccc3[nH]2)cc1OC`, the Potency was inconclusive: 44.7 µM [inhibitor, partial curve, poor fit]. In the case of `CCOC(=O)c1c(C)[nH]c(C)c1S(=O)(=O)N(C)CC(=O)Nc1ccccc1F`, the “activity change, negative = inhibition” value is reported as inactive: -7.4%. For `CCOc1cc(NC(=S)Nc2cccc(OC)c2)c(OCC)cc1NC(=O)C1CC1`, the Potency was inconclusive: 5.01 µM [inhibitor, partial curve, poor fit]. With `CCCn1c(=O)c2ccccc2n(CC(=O)N(C)c2cccc(Cl)c2)c1=O` the “activity change, negative = inhibition” value was inactive: -33.9%. `COc1ccc(C(=O)CN2CCN(S(=O)(=O)c3cccc([N+](=O)[O-])c3)CC2)cc1OC` was tested, and the “activity change, negative = inhibition” value was inactive: -10.1%. For `COc1ccc(N2CC(c3noc(-c4ccc5c(c4)OCO5)n3)CC2=O)cc1` (stereo not drawn), the “activity change, negative = inhibition” value was inactive: -2.1%. `CCOC(=O)c1cc2c(C)[nH]c(C)c2cc(C(=O)OCC)c1=O` was tested, and the Potency was inconclusive: 44.7 µM [inhibitor, partial curve, poor fit]. `COc1ccc(NC(=O)N(C)C[C@H]2Oc3ccc(NS(=O)(=O)c4cccs4)cc3C(=O)N([C@H](C)CO)C[C@@H]2C)cc1` was tested, and the Potency was inconclusive: 31.6 µM [inhibitor, partial curve, poor fit]. `COCCn1ncc(N2CCC(C(=O)Nc3ccc(F)cc3F)C2)cc1=O` (stereo not drawn) was tested, and the Potency was inconclusive: 14.1 µM [inhibitor, full curve]. `COc1ccc(/C(C)=N/Nc2cccc(C(=O)O)c2)cc1OC` was tested, and the “activity change, negative = inhibition” value was inactive: -16.3%. `Cc1nc(SC(C(=O)c2ccccc2)c2ccccc2)n[nH]1` (stereo not drawn) was tested, and the Potency was inconclusive: 44.7 µM [inhibitor, partial curve, poor fit]. In the case of `Cc1ccccc1-c1nc(C#N)c(NCC(C)C)o1`, the Potency is reported as inconclusive: 50.1 µM [inhibitor, partial curve, poor fit]. In the case of `COc1ccccc1N(CC(=O)NCCSCc1ccccc1)S(=O)(=O)c1ccc(C)cc1`, the Potency is reported as inconclusive: 79.4 µM [inhibitor, partial curve, poor fit] and inconclusive: 44.7 µM [inhibitor, partial curve, poor fit]. In the case of `CCc1ccc(C(=O)c2cn(CC(=O)Nc3ccc(F)cc3)c3ccc(OC)cc3c2=O)cc1`, the Potency is reported as inconclusive: 126 µM [inhibitor, partial curve, poor fit]. `Cc1noc(C)c1-c1nc(N2CCN(C)CC2)c2ccccc2n1` was tested, and the Potency was active: 17.8 µM. `COc1ccc(NC(=O)Cn2c(=O)n(C(C)C)c(=O)c3oc4ccccc4c32)cc1Cl` was tested, and the “activity change, negative = inhibition” value was inactive: -21.3%. In the case of `COc1cc(NC(=O)[C@H]2O[C@@H](n3ccc(N)nc3=O)[C@H](O)[C@@H]2O)cc(OC)c1OC`, the activity change, negative = inhibition is reported as inconclusive: -31.3% [inhibitor]. In the case of `Brc1ccc(-c2noc(-c3cc(-c4ccco4)n[nH]3)n2)cc1`, the Potency is reported as inconclusive: 7.94 µM [inhibitor, full curve, poor fit]. `CCC1(C)Cc2c(sc3nnn(CC(=O)Nc4ccccc4C)c(=O)c23)CO1` (stereo not drawn) was tested, and the “activity change, negative = inhibition” value was inactive: -27.2%. In the case of `CSc1ncc2c(n1)-c1ccccc1N(Cc1ccc(Cl)cc1)S2(=O)=O`, the Potency is reported as inconclusive: 126 µM [inhibitor, partial curve, poor fit]. With `O=C(Nc1cccc(-c2nc3ccccc3o2)c1)c1ccc2c(c1)OCO2` the Potency was inconclusive: 141 µM [inhibitor, partial curve, poor fit]. For `O=C(NCCc1cnc[nH]1)[C@@H]1C[C@H]2C(=O)NCCCCCCN(S(=O)(=O)c3cccs3)[C@H]2C1`, the “activity change, negative = inhibition” value was inactive: -0.468%. `O=C(Cn1cc(C(=O)c2ccco2)c2ccccc21)Nc1ccc(Br)cc1` was tested, and the Potency was inconclusive: 126 µM [inhibitor, partial curve, poor fit]. In the case of `c1cncc(-c2n[nH]c(CC3CCNC3)n2)c1` (stereo not drawn), the Potency is reported as inconclusive: 7.08 µM [inhibitor, full curve]. For `CC(=O)Nc1ccc(S(=O)(=O)NC(C(=O)O)C(C)C)cc1` (stereo not drawn), the “activity change, negative = inhibition” value was inactive: 3.5%. For `CCOCC(=O)Nc1nnc(Cc2ccc(OC)c(OC)c2)s1`, the Potency was inconclusive: 44.7 µM [inhibitor, partial curve, poor fit]. For `CCOC(=O)C(=O)NC(C)c1ccccc1` (stereo not drawn), the Potency was inconclusive: 4.47 µM [inhibitor, full curve, poor fit]. In the case of `COCCN1C(=O)CC[C@]2(C(=O)N(C)Cc3cccnc3)CCCC[C@@H]12`, the “activity change, negative = inhibition” value is reported as inactive: -4.01%. In the case of `O=C(O)c1ccc(CSc2nnc(-c3ccccc3Cl)n2-c2ccccc2)cc1`, the Potency is reported as inconclusive: 112 µM [inhibitor, partial curve, poor fit].

Reference: PubChem BioAssay AID1671190 (National Center for Advancing Translational Sciences (NCATS), 2021)
% is scaled to controls: 0 for no effect and ±100 for the full control effect; potency is read from the fitted curve at half-maximal effect.
